The test has as its target pyruvate dehydrogenase kinase 1 (human (endogenous in HCT116 and SW480)) (UniProt Q15118). Briefly: co-IP; endogenous PDK1 precipitated with anti-PDK1 antibody and A/G sepharose beads from HCT116 and SW480 lysates (IP lysis buffer: 150 mM NaCl, 25 mM Tris-HCl pH 7.4, 1 mM EDTA, 1% NP-40), rotated overnight at 4 °C; Western blot for STAT3; rabbit IgG as control.

Sequences of proteins named here, by UniProt entry; tags and fusion partners are left off. Residues count along the entry.
UniProt Q15118, residues 29-436: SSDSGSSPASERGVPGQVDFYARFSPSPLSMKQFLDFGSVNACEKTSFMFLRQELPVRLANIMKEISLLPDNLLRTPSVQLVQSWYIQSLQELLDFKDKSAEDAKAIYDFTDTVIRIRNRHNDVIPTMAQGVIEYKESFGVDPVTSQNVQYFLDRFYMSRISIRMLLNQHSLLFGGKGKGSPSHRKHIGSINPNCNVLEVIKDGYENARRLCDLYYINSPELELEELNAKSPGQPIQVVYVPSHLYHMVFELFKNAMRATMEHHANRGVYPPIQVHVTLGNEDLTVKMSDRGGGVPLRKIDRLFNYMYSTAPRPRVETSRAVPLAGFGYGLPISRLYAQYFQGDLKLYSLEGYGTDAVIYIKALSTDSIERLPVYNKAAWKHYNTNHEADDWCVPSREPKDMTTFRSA
UniProt P40763: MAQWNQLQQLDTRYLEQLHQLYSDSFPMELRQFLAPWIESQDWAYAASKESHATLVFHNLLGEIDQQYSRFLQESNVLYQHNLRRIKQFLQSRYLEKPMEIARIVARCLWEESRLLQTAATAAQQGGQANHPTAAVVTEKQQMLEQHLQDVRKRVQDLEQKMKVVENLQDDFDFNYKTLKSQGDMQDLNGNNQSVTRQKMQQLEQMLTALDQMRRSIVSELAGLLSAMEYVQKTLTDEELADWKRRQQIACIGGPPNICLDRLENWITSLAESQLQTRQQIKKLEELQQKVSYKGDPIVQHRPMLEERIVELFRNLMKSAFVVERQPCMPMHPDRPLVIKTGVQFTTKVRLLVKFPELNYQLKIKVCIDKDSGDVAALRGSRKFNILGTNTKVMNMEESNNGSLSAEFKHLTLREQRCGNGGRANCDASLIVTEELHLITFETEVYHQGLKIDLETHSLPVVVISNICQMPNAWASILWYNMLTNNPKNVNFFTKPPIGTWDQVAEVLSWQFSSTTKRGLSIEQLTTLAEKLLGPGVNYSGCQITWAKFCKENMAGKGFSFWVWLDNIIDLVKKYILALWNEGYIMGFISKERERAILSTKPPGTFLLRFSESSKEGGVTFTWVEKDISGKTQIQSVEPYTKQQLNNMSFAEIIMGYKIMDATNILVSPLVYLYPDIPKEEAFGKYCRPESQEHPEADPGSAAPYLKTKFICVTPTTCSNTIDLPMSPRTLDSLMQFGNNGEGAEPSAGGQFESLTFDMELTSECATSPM

These are yes or no findings as the source states them, for the method shown. In cells and extracts the contact can be indirect. Some results given as binding are weak or reduced against the parent protein; the word gives no strength.

For the substance STAT3 (from UniProt P40763 1-770), the binding result was “binds”.

Values taken from article PMC6736869.
